Experimental data taken from ChEMBL document CHEMBL5724796, “Tm Shift (DSF) assay results for EUbOPEN Chemogenomics Library” (2024).
Values joined by “and” are separate entries in the source; they are usually repeats but may differ in a detail not shown here. Equal entries are not always repeated.

Protein sequences, listed by entry. Tags and fused reporters are not part of them.
UniProt P21802, whole entry, looked up: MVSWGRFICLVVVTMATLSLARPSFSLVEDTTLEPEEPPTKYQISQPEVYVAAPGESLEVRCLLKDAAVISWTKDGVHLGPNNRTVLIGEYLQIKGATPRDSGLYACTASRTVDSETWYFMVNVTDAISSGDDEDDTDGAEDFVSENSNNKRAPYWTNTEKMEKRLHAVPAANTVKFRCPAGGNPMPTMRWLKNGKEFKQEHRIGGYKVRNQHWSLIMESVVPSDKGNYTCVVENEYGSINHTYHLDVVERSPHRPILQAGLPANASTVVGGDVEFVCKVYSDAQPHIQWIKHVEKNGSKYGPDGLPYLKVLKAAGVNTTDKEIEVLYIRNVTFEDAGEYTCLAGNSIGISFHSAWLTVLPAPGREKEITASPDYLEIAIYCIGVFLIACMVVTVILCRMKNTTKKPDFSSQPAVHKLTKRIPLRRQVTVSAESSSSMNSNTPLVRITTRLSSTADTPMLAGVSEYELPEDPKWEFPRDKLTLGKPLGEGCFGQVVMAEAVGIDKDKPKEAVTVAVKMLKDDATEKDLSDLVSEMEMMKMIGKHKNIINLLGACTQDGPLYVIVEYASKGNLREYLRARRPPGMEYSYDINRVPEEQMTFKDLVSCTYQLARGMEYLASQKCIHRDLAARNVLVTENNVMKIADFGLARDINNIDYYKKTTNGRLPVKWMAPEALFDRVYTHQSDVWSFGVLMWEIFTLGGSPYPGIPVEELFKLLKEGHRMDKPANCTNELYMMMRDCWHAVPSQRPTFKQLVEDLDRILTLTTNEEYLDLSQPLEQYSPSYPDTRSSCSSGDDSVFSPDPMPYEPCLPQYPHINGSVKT

Assays:
[1] = molecular target: T1, Peregrin (Homo sapiens) (UniProt P55201); settings: Compound concentration 20.0 uM
T1 sequence (whole entry): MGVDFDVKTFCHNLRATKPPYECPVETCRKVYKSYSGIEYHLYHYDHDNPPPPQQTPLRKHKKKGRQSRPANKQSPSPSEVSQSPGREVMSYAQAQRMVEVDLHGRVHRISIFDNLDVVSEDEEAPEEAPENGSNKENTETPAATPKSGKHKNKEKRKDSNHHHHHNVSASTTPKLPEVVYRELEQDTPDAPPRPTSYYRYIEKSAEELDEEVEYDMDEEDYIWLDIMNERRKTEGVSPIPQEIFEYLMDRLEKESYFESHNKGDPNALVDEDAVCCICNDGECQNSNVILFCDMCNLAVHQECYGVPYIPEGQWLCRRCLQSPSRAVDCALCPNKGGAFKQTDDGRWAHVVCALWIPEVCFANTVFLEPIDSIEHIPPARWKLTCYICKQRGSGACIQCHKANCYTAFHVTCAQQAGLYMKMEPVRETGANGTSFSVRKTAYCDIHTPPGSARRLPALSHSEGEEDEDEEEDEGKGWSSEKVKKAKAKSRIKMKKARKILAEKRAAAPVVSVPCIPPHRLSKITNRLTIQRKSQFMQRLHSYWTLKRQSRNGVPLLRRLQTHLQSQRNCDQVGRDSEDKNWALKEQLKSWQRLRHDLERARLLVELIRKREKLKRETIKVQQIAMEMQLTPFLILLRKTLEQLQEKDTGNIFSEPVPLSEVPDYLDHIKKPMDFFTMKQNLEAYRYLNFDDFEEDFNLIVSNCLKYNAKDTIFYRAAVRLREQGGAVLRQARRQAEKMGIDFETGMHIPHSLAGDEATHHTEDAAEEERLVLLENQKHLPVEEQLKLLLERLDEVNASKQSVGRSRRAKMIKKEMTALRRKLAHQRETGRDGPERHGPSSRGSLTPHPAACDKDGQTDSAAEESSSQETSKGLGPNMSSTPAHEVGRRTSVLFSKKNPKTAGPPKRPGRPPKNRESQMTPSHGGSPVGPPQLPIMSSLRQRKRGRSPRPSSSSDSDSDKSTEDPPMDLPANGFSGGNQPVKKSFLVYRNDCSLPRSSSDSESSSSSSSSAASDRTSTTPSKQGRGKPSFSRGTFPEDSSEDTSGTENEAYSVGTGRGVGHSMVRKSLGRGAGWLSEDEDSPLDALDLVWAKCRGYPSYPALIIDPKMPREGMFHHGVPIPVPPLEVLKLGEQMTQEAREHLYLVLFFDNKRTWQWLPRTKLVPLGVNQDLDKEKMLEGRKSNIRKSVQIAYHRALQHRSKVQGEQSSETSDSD

[2] = molecular target: Fibroblast growth factor receptor 2 (Homo sapiens) (UniProt P21802); settings: Compound concentration 20.0 uM

Structure (SMILES) | ΔTm [1] | ΔTm [2]
COC[C@@H](NC(=O)N1CC(=O)Nc2cc(OC)cnc21)c1ccc(OC(F)(F)F)c(F)c1 | -0.5 °C | 0.05 °C
Cc1ccc(C(=O)NCCCCCC(=O)Nc2ccccc2N)cc1 | -1.08 °C and -1.24 °C | 0.03 °C and 0.55 °C
CNC(=O)c1ccc(-c2cc3cccc(-c4nn(C5CCOCC5)c5c4CN(C(C)=O)CC5)c3cn2)cn1 | -0.33 °C | 0.4 °C
